This is an account of results in paper PMC7819943, “Rice protein-binding microarrays: a tool to detect cis-acting elements near promoter regions in rice”.

The list shows a part of the results.

For this assay, the target named is T1, OsSMF1 (Oryza sativa, UniProt Q6ZLB0 1-436).
T1 sequence: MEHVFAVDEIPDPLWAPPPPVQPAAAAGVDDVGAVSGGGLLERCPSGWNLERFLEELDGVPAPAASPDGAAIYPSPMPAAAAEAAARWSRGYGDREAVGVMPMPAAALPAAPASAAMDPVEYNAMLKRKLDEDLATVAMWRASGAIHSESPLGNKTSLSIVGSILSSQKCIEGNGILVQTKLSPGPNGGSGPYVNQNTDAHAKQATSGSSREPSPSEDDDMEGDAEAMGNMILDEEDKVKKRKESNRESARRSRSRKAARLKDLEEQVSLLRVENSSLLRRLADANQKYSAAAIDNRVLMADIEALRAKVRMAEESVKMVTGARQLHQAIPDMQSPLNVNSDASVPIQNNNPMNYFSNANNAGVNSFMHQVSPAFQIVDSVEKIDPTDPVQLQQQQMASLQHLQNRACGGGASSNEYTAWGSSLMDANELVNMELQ
Kind of assay: protein-binding microarray (RPBM); PBS, 2% BSA, 51.3 ng/ul salmon testes DNA, 50 uM zinc acetate, 200 nM TF, 25 C, 1 h; high values mean tight binding. The following applies: protein: recombinant; tags: N-terminal polyhistidine and DsRed monomer fusion (pET32a); chain copies: 2; label: CyDye5-dUTP incorporated in the synthesized complementary strand; 3' TTTTT single-stranded linker to array surface; dsDNA, one strand shown. Summed up:
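Transcription factors, each fused N-terminally to a polyhistidine tag and DsRed, were expressed in E. coli BL21-CodonPlus and purified on Ni–NTA. A custom Agilent array was made double-stranded by primer extension with Cy5-dUTP and blocked with 2% BSA. It was incubated with 200 nM protein in PBS, 2% BSA, salmon testes DNA and 50 µM zinc acetate at 25 °C for 1 h, then washed. The binding signal is per-feature fluorescence intensity (arbitrary units) read on an Axon 4000B scanner.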
In the case of “TTCGTCCGTGCGTGCGTGCGTGCGCGACTCGCTCTCACACCGGAGTCACCTAGTGCAG”, the binding signal was 10700 fluorescence intensity (a.u.).
With “AAATGTCAACGTGTCACTAGGAAAAGTCAAAATAATTCCCCGGAGTCACCTAGTGCAG”, the binding signal was 6400 fluorescence intensity (a.u.).
With “CTTCATACTGCAGTATCTGAAAAGATGTCATTGTAAAGTTCGGAGTCACCTAGTGCAG”, the binding signal was 3140 fluorescence intensity (a.u.).
For “CTCCCATTTTAAGTGGTAGTTGTAAATTTCTGTGTTTAACCGGAGTCACCTAGTGCAG”, the binding signal is 3320 fluorescence intensity (a.u.).
As to “CCTAGGATAGGATGTGACATATTCTATACCAACGAATCTGCGGAGTCACCTAGTGCAG”, the binding signal was 3680 fluorescence intensity (a.u.).
With “CTCTCGAGCTCACCCCGTCATCCACCTCACCCGCGCCGTCCGGAGTCACCTAGTGCAG”, the binding signal was 5820 fluorescence intensity (a.u.).
For the sequence “CGGTATTTTCAGCTCTTTGAGGTGGTGGGCTGGTGGCGTACGGAGTCACCTAGTGCAG”, the binding signal is 3290 fluorescence intensity (a.u.).
As to “GGATATAGTTTTATAAACTAGTCATGTGTTGTGTGGTTGACGGAGTCACCTAGTGCAG”, the binding signal is 3840 fluorescence intensity (a.u.).
Regarding “GGCTACGTCACTCAGCCGTCAGTTACTCGTCAAATCACCACGGAGTCACCTAGTGCAG”, the binding signal is 7060 fluorescence intensity (a.u.).
As for “TTCACTCGAGTTGAGTTGGTCCAGGATGTTGCCCACAGTGCGGAGTCACCTAGTGCAG”, the binding signal is 26700 fluorescence intensity (a.u.).
On to “GCTTCGTGGGCCTCTCACTTGAGTCACTGGCACTCCATTCCGGAGTCACCTAGTGCAG”, for which the binding signal is 3570 fluorescence intensity (a.u.).
Take “TGCGCTTGCCACATCAGCCTGGCCATGAACAAAGTTTTCGCGGAGTCACCTAGTGCAG”: the binding signal was 13200 fluorescence intensity (a.u.).
As to “TACTCTTTTCTTTGTCATGGTTTTCTCATTTTCCCCTATGCGGAGTCACCTAGTGCAG”, the binding signal was 3580 fluorescence intensity (a.u.).
Turning to “TCATATGCTGAGAGCCTGGAACATCAGCTGTGCTGCGTGGCGGAGTCACCTAGTGCAG”, the binding signal was 4510 fluorescence intensity (a.u.).
Next, “AGGTAGTGGTGGATGGGGAGGAGGAGGAGCCTTAGGTAGTCGGAGTCACCTAGTGCAG”: 3850 fluorescence intensity (a.u.).
For the sequence “TAGGGTTGGCGGGTGGCGAGGCGACTCGGCTGTTCCCCATCGGAGTCACCTAGTGCAG”, the binding signal was 3570 fluorescence intensity (a.u.).
In the case of “CTCGCTGCTGGTGGTGGTGGAGGATAGGTACAAGCAGCTGCGGAGTCACCTAGTGCAG”, the binding signal is 3540 fluorescence intensity (a.u.).
Consider “TGCCATGTGGATATTTGGAAGGCGTGGCGGCATGTGCCCCCGGAGTCACCTAGTGCAG”, for which the binding signal was 3330 fluorescence intensity (a.u.).
Take “TTGCTCATGTCATGTGGTCACTCCCCAAGTCACCAGCATCCGGAGTCACCTAGTGCAG”: the binding signal is 3250 fluorescence intensity (a.u.).
Take “ATGGAGGGTCGGCCTTATGATGACACCAACTATGTCTATGCGGAGTCACCTAGTGCAG”: the binding signal is 3880 fluorescence intensity (a.u.).
As to “GACGTCGCGCACACGTCGGCGTCGCTGCTCTGGCTGTACGCGGAGTCACCTAGTGCAG”, the binding signal is 5790 fluorescence intensity (a.u.).
Take “AAGAGGGGAAAAGAACGCTATCTTCACGGGAGGCAGTTCCCGGAGTCACCTAGTGCAG”: the binding signal is 3300 fluorescence intensity (a.u.).
As for “GACGCAAACGCAACCCATTGGCTCTTGGCAAATGCAACAGCGGAGTCACCTAGTGCAG”, the binding signal is 22300 fluorescence intensity (a.u.).
Under “CCGACCGCCACGGCGACTCGTCTCCCCACTCCACGTGGGCCGGAGTCACCTAGTGCAG” stands 6720 fluorescence intensity (a.u.); under “TCCTCCACTCACTTTCATGTACAGCTCACTTTCTTGGCCTCGGAGTCACCTAGTGCAG”, 4100 fluorescence intensity (a.u.); under “CAAGCAGTTGGCTTAACTCAACCACGTGTGCGGCCACCTTCGGAGTCACCTAGTGCAG”, 5590 fluorescence intensity (a.u.).
As for “TTCCGAGTTCCGACCCGCGCCGCCACGCCACGCTACATCCCGGAGTCACCTAGTGCAG”, the binding signal is 4680 fluorescence intensity (a.u.).
Take “CACATCACATCACATGCCGGCCCGGCTCGCCATTGATCACCGGAGTCACCTAGTGCAG”: the binding signal is 3340 fluorescence intensity (a.u.).
As to “CACGCGATTCACAATTAGAAAAGGCTTGACCTGGCCTTCGCGGAGTCACCTAGTGCAG”, the binding signal is 3560 fluorescence intensity (a.u.).
Consider “CCTACACCTCGAGCAAGTTTCCTATAATTGAGGCAGATTACGGAGTCACCTAGTGCAG”, for which the binding signal is 23100 fluorescence intensity (a.u.).
Regarding “TTGGAGTTGTACTAGGTGTTATGACTAGAGTAAGAGTCAGCGGAGTCACCTAGTGCAG”, the binding signal was 3520 fluorescence intensity (a.u.).
On to “TTTTAAGTCTAATTGCGCCATGATTTAATAATGTGGTGCTCGGAGTCACCTAGTGCAG”, for which the binding signal was 3670 fluorescence intensity (a.u.).
Take “ACACATGTCAGATTAATTGATCGCGTGTGCGTGTCTATATCGGAGTCACCTAGTGCAG”: the binding signal was 3180 fluorescence intensity (a.u.).
Take “CAACAACTCCCCATCAGCATTGCGAAATGCGAACCAGAGCCGGAGTCACCTAGTGCAG”: the binding signal is 10200 fluorescence intensity (a.u.).
Under “GTAGAGTTTGCGTGCGTGTCAGCGTGTGTTTATAGGAGTGCGGAGTCACCTAGTGCAG” stands 7300 fluorescence intensity (a.u.); under “AATCCCCGCACTCCCACTCGTTCGAGCTCCACCAACAACTCGGAGTCACCTAGTGCAG”, 4670 fluorescence intensity (a.u.); under “CATTTAGCCCTGTCAACCATTTGTACAGGCTTTTGTCATACGGAGTCACCTAGTGCAG”, 4220 fluorescence intensity (a.u.).
“TTCTCTCTCCCGGACATCGAACACGATAAGCTTGAAGTCACGGAGTCACCTAGTGCAG”: the binding signal was 35000 fluorescence intensity (a.u.).
Next, “TAGTAACTGATGTGTGTGTGTGTGCAGTCTCCGTGCGTGTCGGAGTCACCTAGTGCAG”: 4790 fluorescence intensity (a.u.); “CACCGACGCCACCTCACCCGAAGCCGGCCGGAGTGGTCCGCGGAGTCACCTAGTGCAG”: 6140 fluorescence intensity (a.u.); “CTTTTCCCCGACTAAACACACCCATACTGTCAAAAGGTAACGGAGTCACCTAGTGCAG”: 26800 fluorescence intensity (a.u.).
As for “AAGCGCAAATGCCGTCACGCCAAATAACCTCACATAGCCCCGGAGTCACCTAGTGCAG”, the binding signal is 3630 fluorescence intensity (a.u.).
For “TCATACATGTGTTCAAACATTCGATGTGACACGGTGTAAACGGAGTCACCTAGTGCAG”, the binding signal was 3210 fluorescence intensity (a.u.).
Turning to “GAAGTCGACCATGGTCAAAACCTGCCACATCAGTAGAAATCGGAGTCACCTAGTGCAG”, the binding signal was 4960 fluorescence intensity (a.u.).
Take “CTGGCTACCGTGCGGCCACCTGTACCACTCTAATTCCCTTCGGAGTCACCTAGTGCAG”: the binding signal is 3950 fluorescence intensity (a.u.).
Regarding “CCATTGCTTGATGATGCCATCCATGAGTCAGCCGCATGTACGGAGTCACCTAGTGCAG”, the binding signal was 11100 fluorescence intensity (a.u.).
Next, “TCTGTATATCCGTACTACGAGATTTGGTCAAAAGTTGAAACGGAGTCACCTAGTGCAG”: 22200 fluorescence intensity (a.u.); “GTCCTCCTCCCCTGCGACGACGGCGGCGGCGGCGGCGGTGCGGAGTCACCTAGTGCAG”: 3220 fluorescence intensity (a.u.); “CCACGCGCTCTATAAGTAGACGGCTCTTCGGCGCGTGTCACGGAGTCACCTAGTGCAG”: 3400 fluorescence intensity (a.u.).
Consider “CCCGCGCGACGTCAGCAAGGCGTTGGCCGGCGTGGTACTGCGGAGTCACCTAGTGCAG”, for which the binding signal is 8080 fluorescence intensity (a.u.).
Consider “AGTGTTATGTTTGAGTTATACACGTGCAAGTTTTGTGATTCGGAGTCACCTAGTGCAG”, for which the binding signal was 4040 fluorescence intensity (a.u.).
Next, “AGCTGGCGGCTGGCGGGTGGTGGTGGTGGCTGGCGGCGGGCGGAGTCACCTAGTGCAG”: 4500 fluorescence intensity (a.u.); “GACGTCGTCATCGACGTCATCGGTGTAGTCCAGTTCGGCGCGGAGTCACCTAGTGCAG”: 10400 fluorescence intensity (a.u.).
On to “TTTAAGTTTGGTTTTGGCGTCTTATGTGTAATGTAATCAACGGAGTCACCTAGTGCAG”, for which the binding signal is 4120 fluorescence intensity (a.u.).
